Article PMC10576442
No constants are given. Whether binding was seen depends on the method and setting. In cells and extracts the contact can be indirect. Some results given as binding are weak or reduced against the parent protein; the word gives no strength. For some assays here: Sequences can lack the tags named with a protein.

Protein sequences, listed by entry. Tags and fused reporters are not part of them.
UniProt Q13616: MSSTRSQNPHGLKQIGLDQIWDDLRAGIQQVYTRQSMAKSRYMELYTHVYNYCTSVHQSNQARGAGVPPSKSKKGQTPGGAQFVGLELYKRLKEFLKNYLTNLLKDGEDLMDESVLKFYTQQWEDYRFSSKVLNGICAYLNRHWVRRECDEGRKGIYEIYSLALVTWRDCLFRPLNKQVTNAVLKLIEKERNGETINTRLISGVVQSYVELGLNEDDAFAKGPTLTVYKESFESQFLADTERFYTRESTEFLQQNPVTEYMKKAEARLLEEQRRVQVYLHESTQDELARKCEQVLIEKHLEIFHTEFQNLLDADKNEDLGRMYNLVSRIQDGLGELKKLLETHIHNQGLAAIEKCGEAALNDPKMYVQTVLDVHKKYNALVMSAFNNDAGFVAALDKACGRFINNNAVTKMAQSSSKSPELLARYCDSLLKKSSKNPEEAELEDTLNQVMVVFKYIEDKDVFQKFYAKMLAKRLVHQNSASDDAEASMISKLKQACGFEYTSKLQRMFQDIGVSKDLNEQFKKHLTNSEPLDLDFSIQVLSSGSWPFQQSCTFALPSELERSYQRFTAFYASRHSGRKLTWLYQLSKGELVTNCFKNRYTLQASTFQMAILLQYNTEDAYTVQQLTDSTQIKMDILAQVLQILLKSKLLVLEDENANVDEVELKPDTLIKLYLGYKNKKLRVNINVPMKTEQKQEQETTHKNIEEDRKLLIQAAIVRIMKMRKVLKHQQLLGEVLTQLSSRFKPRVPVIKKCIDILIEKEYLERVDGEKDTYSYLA

T1: FBXO11 (as used with the hnRNPA2B1 truncations and the CUL1 truncations) (UniProt Q86XK2)
T1 sequence: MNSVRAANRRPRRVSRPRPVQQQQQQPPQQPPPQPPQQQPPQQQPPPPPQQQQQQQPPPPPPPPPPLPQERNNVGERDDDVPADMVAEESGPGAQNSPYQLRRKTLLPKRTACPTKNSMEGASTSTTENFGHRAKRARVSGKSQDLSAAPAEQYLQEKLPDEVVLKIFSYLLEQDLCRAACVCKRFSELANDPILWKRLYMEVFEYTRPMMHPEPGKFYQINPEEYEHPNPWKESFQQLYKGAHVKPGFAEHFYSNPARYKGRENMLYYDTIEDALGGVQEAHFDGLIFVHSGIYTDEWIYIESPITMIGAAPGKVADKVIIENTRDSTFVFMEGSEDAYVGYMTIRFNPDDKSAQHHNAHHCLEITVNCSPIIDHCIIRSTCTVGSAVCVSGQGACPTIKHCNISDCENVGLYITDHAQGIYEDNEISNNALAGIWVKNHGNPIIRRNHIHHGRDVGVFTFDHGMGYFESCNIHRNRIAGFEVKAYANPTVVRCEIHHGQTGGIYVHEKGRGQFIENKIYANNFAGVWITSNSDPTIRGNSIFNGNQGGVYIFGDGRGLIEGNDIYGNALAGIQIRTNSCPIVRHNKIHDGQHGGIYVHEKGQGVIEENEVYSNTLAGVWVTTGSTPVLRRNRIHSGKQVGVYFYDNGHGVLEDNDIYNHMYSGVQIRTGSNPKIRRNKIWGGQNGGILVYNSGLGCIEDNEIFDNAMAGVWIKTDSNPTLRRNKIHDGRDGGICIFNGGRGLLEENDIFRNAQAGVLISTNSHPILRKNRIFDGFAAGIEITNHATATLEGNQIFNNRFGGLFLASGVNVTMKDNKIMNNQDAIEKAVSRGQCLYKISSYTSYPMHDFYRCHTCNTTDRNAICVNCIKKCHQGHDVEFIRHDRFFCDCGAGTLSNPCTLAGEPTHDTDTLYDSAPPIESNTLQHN

B1: Flag-tagged hnRNPA2B1 truncation: a segment of 81 amino acids in the RRM_2 region (domain or fragment, UniProt P22626 112-191)
chain: KKLFVGGIKEDTEEHHLRDYFEEYGKIDTIEIITDRQSGKKRGFGFVTFDDHDPVDKIVLQKYHTINGHNAEVRKALSRQ
B2: F-box protein 11 (FBXO11) (protein, UniProt Q86XK2 1-927)
chain: T1 sequence

Experiments:
[1] = molecular target: T1, FBXO11 (as used with the hnRNPA2B1 truncations and the CUL1 truncations); test: co-IP; FBXO11 with Flag-tagged hnRNPA2B1 and its truncated forms (Figure 7G)
[2] = molecular target: Cullin-1 (CUL1) (UniProt Q13616); test: co-IP; immunoprecipitation with CUL1 antibody, western blot of F-box proteins; control cells, CAND1 knock-down and CAND1 overexpression (Figure 4H, S6A, S6B)

| Binder | binding [1] | binding [2] |
| --- | --- | --- |
| B1 | binds | – |
| B2 | – | binds |
